These are yes or no findings as the source states them, for the method shown.
Target: phyB-GFP (Arabidopsis thaliana) (UniProt P14713)
Assay: fluorescence-activated particle sorting of phyB-GFP photobodies with LC-MS/MS; photobodies sorted by green fluorescence (Alexa Fluor 488 anti-GFP antibody) from sonicated nuclei of PHYB-GFP leaves; proteins enriched over the pre-sorted nuclear extract by more than 2σ

By UniProt entry, the sequences of proteins in these tests, tags left out. Residues count along the entry.
UniProt P14713: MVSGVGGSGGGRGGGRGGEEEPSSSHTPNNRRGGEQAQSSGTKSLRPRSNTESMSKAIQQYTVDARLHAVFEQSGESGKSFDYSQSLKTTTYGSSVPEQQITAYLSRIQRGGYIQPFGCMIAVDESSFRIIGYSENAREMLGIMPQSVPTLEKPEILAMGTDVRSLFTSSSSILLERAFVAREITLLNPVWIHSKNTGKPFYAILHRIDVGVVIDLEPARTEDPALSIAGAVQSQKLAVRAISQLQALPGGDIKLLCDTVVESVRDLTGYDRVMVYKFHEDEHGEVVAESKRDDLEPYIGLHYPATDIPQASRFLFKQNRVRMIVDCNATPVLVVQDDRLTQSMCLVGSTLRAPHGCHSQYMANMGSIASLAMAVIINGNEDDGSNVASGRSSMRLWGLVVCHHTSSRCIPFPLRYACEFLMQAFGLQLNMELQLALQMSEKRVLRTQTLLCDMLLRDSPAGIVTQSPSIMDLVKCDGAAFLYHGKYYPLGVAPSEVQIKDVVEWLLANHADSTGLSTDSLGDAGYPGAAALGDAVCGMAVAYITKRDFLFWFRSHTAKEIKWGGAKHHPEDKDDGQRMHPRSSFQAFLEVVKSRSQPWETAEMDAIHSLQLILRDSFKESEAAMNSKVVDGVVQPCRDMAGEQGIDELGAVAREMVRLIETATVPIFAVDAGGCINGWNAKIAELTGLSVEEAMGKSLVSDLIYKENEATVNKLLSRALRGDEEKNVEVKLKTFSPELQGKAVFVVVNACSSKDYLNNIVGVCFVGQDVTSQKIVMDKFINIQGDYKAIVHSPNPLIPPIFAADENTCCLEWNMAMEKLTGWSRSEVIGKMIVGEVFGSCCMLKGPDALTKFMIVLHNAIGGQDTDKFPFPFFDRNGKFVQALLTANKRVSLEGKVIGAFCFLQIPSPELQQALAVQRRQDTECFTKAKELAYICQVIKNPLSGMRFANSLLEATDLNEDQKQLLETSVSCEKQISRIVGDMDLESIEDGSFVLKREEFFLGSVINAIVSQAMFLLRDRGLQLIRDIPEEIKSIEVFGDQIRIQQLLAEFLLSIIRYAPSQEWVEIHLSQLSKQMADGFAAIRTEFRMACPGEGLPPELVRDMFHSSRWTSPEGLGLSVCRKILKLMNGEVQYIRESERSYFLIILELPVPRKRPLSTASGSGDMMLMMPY
UniProt Q5E924, residues 67-420: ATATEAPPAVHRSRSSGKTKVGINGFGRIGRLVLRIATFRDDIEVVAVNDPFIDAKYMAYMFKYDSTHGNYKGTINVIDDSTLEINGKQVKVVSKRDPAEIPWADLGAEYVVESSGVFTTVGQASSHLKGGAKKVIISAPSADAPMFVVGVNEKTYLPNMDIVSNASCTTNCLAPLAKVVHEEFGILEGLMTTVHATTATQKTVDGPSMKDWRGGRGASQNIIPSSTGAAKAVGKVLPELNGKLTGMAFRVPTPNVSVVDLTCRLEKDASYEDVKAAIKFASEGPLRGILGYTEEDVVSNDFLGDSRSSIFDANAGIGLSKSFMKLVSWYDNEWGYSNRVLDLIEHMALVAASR

Substance: GAPCP2 (from UniProt Q5E924 67-420) (enzyme)
- binding: no binding

Source: article PMC10042835
